Drawing on doi:10.64898/2025.12.19.695442, “TRIM37 recognizes a bipartite degron to ubiquitinate centrosome substrates” (bioRxiv, 2025), this text covers binding for 2 substances.

These are yes or no findings as the source states them, for the method shown. Binding calls can cover weak binding; strength is not graded here.

For the assay, the target named is T1, TRIM37 (UniProt O94972 1-964).
T1 construct: TRIM37, E3 ubiquitin ligase; 459-964; The co-immunoprecipitation methods say only 'TRIM37 (1 ug)', the same amount as the Abcam protein of the ubiquitination assay; also called purified TRIM37; source: bought: Abcam ab269066
T1 sequence (looked up): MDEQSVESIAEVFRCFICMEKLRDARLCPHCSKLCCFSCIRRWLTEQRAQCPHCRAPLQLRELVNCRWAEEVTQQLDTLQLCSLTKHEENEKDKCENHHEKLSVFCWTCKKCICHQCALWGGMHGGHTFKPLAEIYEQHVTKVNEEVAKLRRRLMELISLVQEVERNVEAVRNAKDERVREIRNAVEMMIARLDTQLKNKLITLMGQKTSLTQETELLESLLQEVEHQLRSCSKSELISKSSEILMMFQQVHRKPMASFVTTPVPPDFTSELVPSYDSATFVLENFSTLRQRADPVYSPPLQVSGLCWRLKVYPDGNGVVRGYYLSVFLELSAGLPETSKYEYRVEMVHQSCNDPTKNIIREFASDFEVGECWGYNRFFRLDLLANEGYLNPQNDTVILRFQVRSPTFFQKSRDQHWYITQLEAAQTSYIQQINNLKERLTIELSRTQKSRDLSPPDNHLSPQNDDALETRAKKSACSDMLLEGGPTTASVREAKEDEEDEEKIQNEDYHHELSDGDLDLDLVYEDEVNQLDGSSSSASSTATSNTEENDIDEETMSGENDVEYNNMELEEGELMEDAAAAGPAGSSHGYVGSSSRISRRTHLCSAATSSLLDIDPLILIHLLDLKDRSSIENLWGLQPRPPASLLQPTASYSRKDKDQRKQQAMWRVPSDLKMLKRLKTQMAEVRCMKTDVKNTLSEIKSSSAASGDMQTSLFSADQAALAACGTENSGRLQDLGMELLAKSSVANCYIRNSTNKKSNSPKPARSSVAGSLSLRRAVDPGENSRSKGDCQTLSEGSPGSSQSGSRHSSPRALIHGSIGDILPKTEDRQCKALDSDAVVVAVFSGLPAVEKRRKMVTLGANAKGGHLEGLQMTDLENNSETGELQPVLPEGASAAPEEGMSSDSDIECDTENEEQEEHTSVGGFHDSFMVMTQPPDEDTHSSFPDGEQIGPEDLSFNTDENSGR
Kind of assay: pull-down; TRIM37 (1 ug) held on Protein A Dynabeads conjugated with TRIM37 antibody; purified GFP-tagged Cep192 fragments (1 uM), 1 hr at 37°C; washes 150 mM KCl, last wash 500 mM KCl; Western blot against GFP; both purified. A general note: A western blot detects proteins with antibodies after separation by electrophoresis.

With “GFP-tagged Cep192 C-terminal truncation lacking ASH6 (from UniProt Q8TEP8-3) (domain or fragment)”, the binding result was “binds”. In the case of “GFP-tagged Cep192 C-terminal truncation lacking ASH7 (from UniProt Q8TEP8-3) (domain or fragment)” it was “binds”.
